These are yes or no findings as the source states them, for the method shown. In cells and extracts the contact can be indirect. Some binding calls cover weakened binding; strength is not graded here. Tags and fused reporters may be left off the sequences shown.
T1: CESA6, full length, split-YFP (BiFC) fusion (Arabidopsis thaliana) (UniProt Q94JQ6)
T1 sequence: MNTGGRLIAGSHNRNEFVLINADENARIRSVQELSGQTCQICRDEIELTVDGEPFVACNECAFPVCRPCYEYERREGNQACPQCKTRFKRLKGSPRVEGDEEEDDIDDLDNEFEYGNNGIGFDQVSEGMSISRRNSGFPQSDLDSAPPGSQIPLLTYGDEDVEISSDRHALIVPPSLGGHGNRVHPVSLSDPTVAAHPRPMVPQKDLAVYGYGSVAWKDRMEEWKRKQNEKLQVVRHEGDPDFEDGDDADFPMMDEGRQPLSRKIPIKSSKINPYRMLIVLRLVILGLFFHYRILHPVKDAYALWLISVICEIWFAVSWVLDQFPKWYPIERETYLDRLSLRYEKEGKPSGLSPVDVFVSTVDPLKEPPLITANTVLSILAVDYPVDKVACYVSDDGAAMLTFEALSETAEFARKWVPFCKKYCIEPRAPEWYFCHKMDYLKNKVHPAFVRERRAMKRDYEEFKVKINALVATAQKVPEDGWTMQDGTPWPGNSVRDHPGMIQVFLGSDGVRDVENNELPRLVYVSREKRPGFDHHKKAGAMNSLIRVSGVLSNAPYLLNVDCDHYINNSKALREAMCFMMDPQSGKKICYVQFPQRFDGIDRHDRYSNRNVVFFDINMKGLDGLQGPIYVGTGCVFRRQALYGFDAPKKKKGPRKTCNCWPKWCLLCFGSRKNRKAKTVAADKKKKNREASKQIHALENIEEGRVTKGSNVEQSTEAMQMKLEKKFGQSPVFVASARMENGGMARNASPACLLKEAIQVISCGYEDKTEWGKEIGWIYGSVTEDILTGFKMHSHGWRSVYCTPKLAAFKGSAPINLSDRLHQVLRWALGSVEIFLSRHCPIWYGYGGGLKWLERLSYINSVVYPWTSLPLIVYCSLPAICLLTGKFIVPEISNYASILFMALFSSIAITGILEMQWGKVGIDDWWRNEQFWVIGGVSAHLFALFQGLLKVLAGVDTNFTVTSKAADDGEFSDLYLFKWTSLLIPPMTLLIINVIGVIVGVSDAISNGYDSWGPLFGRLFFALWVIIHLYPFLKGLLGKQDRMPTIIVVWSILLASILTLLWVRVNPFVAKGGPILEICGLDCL

T2: CESA4, full length, split-YFP (BiFC) fusion (Arabidopsis thaliana) (UniProt Q84JA6)
T2 sequence: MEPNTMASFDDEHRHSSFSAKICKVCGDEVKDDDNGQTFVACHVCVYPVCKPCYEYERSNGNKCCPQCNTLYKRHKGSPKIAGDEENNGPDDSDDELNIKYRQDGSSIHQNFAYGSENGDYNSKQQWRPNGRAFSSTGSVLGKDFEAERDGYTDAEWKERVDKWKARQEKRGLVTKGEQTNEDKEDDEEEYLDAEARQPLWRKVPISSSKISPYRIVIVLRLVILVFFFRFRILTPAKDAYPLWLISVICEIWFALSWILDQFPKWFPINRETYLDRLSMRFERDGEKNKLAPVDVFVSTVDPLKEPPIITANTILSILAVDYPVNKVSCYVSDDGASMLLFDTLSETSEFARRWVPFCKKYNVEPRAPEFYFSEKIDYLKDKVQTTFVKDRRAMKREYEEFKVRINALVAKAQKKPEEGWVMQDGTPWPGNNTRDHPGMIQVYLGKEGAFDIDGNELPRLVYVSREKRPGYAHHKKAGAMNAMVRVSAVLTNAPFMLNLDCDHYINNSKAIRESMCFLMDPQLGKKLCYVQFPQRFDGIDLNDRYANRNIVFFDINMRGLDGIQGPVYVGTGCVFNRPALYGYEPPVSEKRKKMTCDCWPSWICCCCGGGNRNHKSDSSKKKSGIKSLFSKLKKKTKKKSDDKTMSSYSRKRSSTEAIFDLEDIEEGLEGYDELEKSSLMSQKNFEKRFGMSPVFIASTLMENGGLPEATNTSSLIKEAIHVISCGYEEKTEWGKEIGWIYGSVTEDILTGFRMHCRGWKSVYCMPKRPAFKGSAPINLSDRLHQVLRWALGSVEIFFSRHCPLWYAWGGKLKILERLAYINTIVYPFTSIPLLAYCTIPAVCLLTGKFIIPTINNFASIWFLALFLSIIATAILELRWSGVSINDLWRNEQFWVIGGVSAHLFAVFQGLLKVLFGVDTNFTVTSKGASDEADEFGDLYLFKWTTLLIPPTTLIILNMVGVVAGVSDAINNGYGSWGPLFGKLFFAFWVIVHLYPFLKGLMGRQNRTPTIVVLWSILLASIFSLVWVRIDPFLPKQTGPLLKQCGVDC


Columns and labels:
[1] = target: T1, CESA6, full length, split-YFP (BiFC) fusion (Arabidopsis thaliana); experiment: split reporter; BiFC: Y/N and Y/C fragments of YFP each linked to the N-terminus of the proteins, transiently expressed in leaves of 3-week-old N. benthamiana; YFP fluorescence by confocal microscopy 3 days after infiltration
[2] = target: T2, CESA4, full length, split-YFP (BiFC) fusion (Arabidopsis thaliana); experiment: as above

Row | binding [1] | binding [2] | Binder
1 | binds weakly | binds weakly | KIFVWTVGTLVAAALLAGFITLIVK (domain or fragment, UniProt Q38890 70-94) [KOR1TMD (AA 70 to 94), split-YFP (BiFC) fusion]
2 | – | binds | KORRIGAN1 (KOR1), full length, split-YFP (BiFC) fusion (protein, UniProt Q38890 1-621) MYGRDPWGGPLEINTADSATDDDRSRNLNDLDRAALSRPLDETQQSWLLGPTEQKKKKYVDLGCIIVSRKIFVWTVGTLVAAALLAGFITLIVKTVPRHHPKTPPPDNYTIALHKALKFFNAQKSGKLPKHNNVSWRGNSGLQDGKGETGSFYKDLVGGYYDAGDAIKFNFPMAYAMTMLSWSVIEYSAKYEAAGELTHVKELIKWGTDYFLKTFNSTADSIDDLVSQVGSGNTDDGNTDPNDHYCWMRPEDMDYKRPVTTCNGGCSDLAAEMAAALASASIVFKDNKEYSKKLVHGAKVVYQFGRTRRGRYSAGTAESSKFYNSSMYWDEFIWGGAWMYYATGNVTYLNLITQPTMAKHAGAFWGGPYYGVFSWDNKLAGAQLLLSRLRLFLSPGYPYEEILRTFHNQTSIVMCSYLPIFNKFNRTNGGLIELNHGAPQPLQYSVNAAFLATLYSDYLDAADTPGWYCGPNFYSTSVLRDFARSQIDYILGKNPRKMSYVVGFGTKYPRHVHHRGASIPKNKVKYNCKGGWKWRDSKKPNPNTIEGAMVAGPDKRDGYRDVRMNYNYTEPTLAGNAGLVAALVALSGEEEATGKIDKNTIFSAVPPLFPTPPPPPAPWKP
3 | binds | binds | KOR1N (AA 1 to 94), split-YFP (BiFC) fusion (domain or fragment, UniProt Q38890 1-94) MYGRDPWGGPLEINTADSATDDDRSRNLNDLDRAALSRPLDETQQSWLLGPTEQKKKKYVDLGCIIVSRKIFVWTVGTLVAAALLAGFITLIVK
4 | binds | binds | KOR1C (AA 70 to 621), split-YFP (BiFC) fusion (domain or fragment, UniProt Q38890 70-621) KIFVWTVGTLVAAALLAGFITLIVKTVPRHHPKTPPPDNYTIALHKALKFFNAQKSGKLPKHNNVSWRGNSGLQDGKGETGSFYKDLVGGYYDAGDAIKFNFPMAYAMTMLSWSVIEYSAKYEAAGELTHVKELIKWGTDYFLKTFNSTADSIDDLVSQVGSGNTDDGNTDPNDHYCWMRPEDMDYKRPVTTCNGGCSDLAAEMAAALASASIVFKDNKEYSKKLVHGAKVVYQFGRTRRGRYSAGTAESSKFYNSSMYWDEFIWGGAWMYYATGNVTYLNLITQPTMAKHAGAFWGGPYYGVFSWDNKLAGAQLLLSRLRLFLSPGYPYEEILRTFHNQTSIVMCSYLPIFNKFNRTNGGLIELNHGAPQPLQYSVNAAFLATLYSDYLDAADTPGWYCGPNFYSTSVLRDFARSQIDYILGKNPRKMSYVVGFGTKYPRHVHHRGASIPKNKVKYNCKGGWKWRDSKKPNPNTIEGAMVAGPDKRDGYRDVRMNYNYTEPTLAGNAGLVAALVALSGEEEATGKIDKNTIFSAVPPLFPTPPPPPAPWKP
